According to publication doi:10.1101/2020.12.01.405696:
These are yes or no findings as the source states them, for the method shown. Binding seen in cells or lysates may run through a third protein. Some binding calls cover weakened binding; strength is not graded here.

Protein sequences, listed by entry. Tags and fused reporters are not part of them.
UniProt Q15910: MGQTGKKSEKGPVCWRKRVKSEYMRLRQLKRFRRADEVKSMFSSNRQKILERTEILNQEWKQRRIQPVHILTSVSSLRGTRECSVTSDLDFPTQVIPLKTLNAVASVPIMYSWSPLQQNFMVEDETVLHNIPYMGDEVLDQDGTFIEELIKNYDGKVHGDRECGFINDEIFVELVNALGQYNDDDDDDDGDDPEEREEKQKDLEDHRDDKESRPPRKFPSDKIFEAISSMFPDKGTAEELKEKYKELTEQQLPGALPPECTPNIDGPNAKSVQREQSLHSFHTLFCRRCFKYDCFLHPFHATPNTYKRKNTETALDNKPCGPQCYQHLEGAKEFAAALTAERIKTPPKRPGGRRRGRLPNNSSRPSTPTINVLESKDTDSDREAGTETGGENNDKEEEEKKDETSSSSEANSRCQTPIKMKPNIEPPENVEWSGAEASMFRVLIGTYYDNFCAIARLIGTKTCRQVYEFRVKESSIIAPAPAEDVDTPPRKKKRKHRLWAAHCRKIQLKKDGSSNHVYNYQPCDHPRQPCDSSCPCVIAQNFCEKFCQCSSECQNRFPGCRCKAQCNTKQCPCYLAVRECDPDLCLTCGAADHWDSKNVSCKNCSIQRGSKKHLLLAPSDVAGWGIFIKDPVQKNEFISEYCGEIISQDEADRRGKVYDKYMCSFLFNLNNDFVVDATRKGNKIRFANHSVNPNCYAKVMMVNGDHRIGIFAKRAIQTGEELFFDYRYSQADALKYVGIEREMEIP

Legend:
[1] = molecular target: EZH2, endogenous in glioma spheres (human (endogenous in patient-derived glioma spheres g528 and g83)) (UniProt Q15910); assay: co-IP
[2] = molecular target: GST-EZH2 (UniProt Q15910); assay: pull-down

B1: NEK2 (serine/threonine kinase NEK2), endogenous in glioma spheres (enzyme, UniProt P51955 1-445)
chain: MPSRAEDYEVLYTIGTGSYGRCQKIRRKSDGKILVWKELDYGSMTEAEKQMLVSEVNLLRELKHPNIVRYYDRIIDRTNTTLYIVMEYCEGGDLASVITKGTKERQYLDEEFVLRVMTQLTLALKECHRRSDGGHTVLHRDLKPANVFLDGKQNVKLGDFGLARILNHDTSFAKTFVGTPYYMSPEQMNRMSYNEKSDIWSLGCLLYELCALMPPFTAFSQKELAGKIREGKFRRIPYRYSDELNEIITRMLNLKDYHRPSVEEILENPLIADLVADEQRRNLERRGRQLGEPEKSQDSSPVLSELKLKEIQLQERERALKAREERLEQKEQELCVRERLAEDKLARAENLLKNYSLLKERKFLSLASNPELLNLPSSVIKKKVHFSGESKENIMRSENSESQLTSKSKCKDLKKRLHAAQLRAQALSDIEKNYQLKSRQILGMR
**Q.** B1 was tested. Which binding [1] did it give?
**A.** binds

B2: NEK2 wild type (overexpression vector) (enzyme, UniProt P51955 1-445)
chain: MPSRAEDYEVLYTIGTGSYGRCQKIRRKSDGKILVWKELDYGSMTEAEKQMLVSEVNLLRELKHPNIVRYYDRIIDRTNTTLYIVMEYCEGGDLASVITKGTKERQYLDEEFVLRVMTQLTLALKECHRRSDGGHTVLHRDLKPANVFLDGKQNVKLGDFGLARILNHDTSFAKTFVGTPYYMSPEQMNRMSYNEKSDIWSLGCLLYELCALMPPFTAFSQKELAGKIREGKFRRIPYRYSDELNEIITRMLNLKDYHRPSVEEILENPLIADLVADEQRRNLERRGRQLGEPEKSQDSSPVLSELKLKEIQLQERERALKAREERLEQKEQELCVRERLAEDKLARAENLLKNYSLLKERKFLSLASNPELLNLPSSVIKKKVHFSGESKENIMRSENSESQLTSKSKCKDLKKRLHAAQLRAQALSDIEKNYQLKSRQILGMR
**Q.** B2 was tested. Which binding [2] did it give?
**A.** binds
